# Hit rate of the full screen: of about 31,000 sequences, about 1,400 (4.5%) were called active.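 The calls were made as follows: active = median seed-adjusted z-score above 1 or below -1; inactive = the rest.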 The list shows a part of the results.
# Experiment: Novel Modifiers of Survival Motor Neuron (SMN) Protein: Gene Identification via Genome-wide siRNA Screen;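 also: luminescence tracks full-length SMN protein made from the SMN2 reporter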
# Conditions: HEK293T SMN2-luciferase reporter, siRNA knockdown, 72 h; actives lie on both sides
# How it was run: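 HEK293T cells stably expressing an SMN2 splicing/cDNA-luciferase reporter were reverse-transfected with a druggable-genome siRNA library and read by luminescence at 72 hours; hits defined by MAD score above 1.0 or below -1.0.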
row,Sequence,median seed-adjusted z-score
1,GCAACGAUGUUGCCUGGAATT against GPX1,inactive: -0.0529
2,GGAAAAAGCUUCACCCAGATT against ZNF32,inactive: 0.034
3,CCUACUCUGUUGUUCGAAATT against C3,inactive: 0.0281
4,CAGUGGAUAUCUUGACCUATT against LDHA,inactive: 0.401
5,GGUGCUGGACUAUAUGGAATT against MOGAT2,inactive: -0.319
6,CAGUGAAGGUGUACCCUAATT against POMC,inactive: 0.374
7,CAUCGAGGGUCAUACUAUUTT against POLR2A,active: -3.81
8,GGUCAAUUAGAAGAGGUGATT against NDUFA5,inactive: -0.0429
9,CGAAGAAUCUUCCGAAGAATT against EIF2AK1,inactive: -0.546
10,CUGAGCGACGUGAACCUUATT against TSKU,inactive: -0.548
11,CACUUAUUCUGGUCCUUCATT against ELOVL3,inactive: 0
12,GAGUGUGACUGGUAAAGUUTT against SMNDC1,active: -1.54
13,GGAGUGAUAUAGCAGGUUUTT against ATAD1,inactive: -0.544
14,GAGGGUUACUGGGACUGUATT against YAF2,inactive: 0
15,CCCUCUUCCUUAUCCUGCATT against PITPNM1,inactive: -0.203
16,CGAGUACCGCAUAAGCAUUTT against PCDHGA2,inactive: -0.8
17,GCAUGCUUCGAAACUCUGATT against NDUFV2,inactive: -0.794
18,GAUCAGAGGUGUCACCCUUTT against SLC6A12,inactive: -0.708
19,AGCAUUUCCUGGAUGACAATT against CYP2A7,inactive: 0.342
20,GAAUGUCGCAGAAAGAAGATT against ATF1,inactive: -0.112
21,GCACGGAUGAUCGAACAGATT against ACP6,inactive: -0.631
22,GGAGAGACAUCGUCAGCUATT against AGXT,inactive: 0.017
23,GGAAGACCUUCUAUAAGAATT against ZNF37A,inactive: -0.0585
24,GCAUGAGUACAGUACCAGATT against NP,inactive: -0.386
25,GGUGUACUAUUGACUGGAATT against NAP1L4,inactive: -0.244
26,GUUCCGAAGCUACUAUGAATT against CAMTA2,inactive: 0.152
27,CCACUAAACUGCGAGAGAATT against CEBPD,inactive: -0.101
28,CCAGCAUGGUUACUACGAATT against TRAIP,inactive: -0.018
29,CCCGGAUAGUGAGAAAAGUTT against APOL4,inactive: -0.54
30,GGUCUGUACUGGGAUUCAUTT against PKD2L2,inactive: -0.0723

# Fetched one by one from above:
row,Sequence,median seed-adjusted z-score
10,CUGAGCGACGUGAACCUUATT against TSKU,inactive: -0.548
28,CCAGCAUGGUUACUACGAATT against TRAIP,inactive: -0.018

# Reference: PubChem BioAssay AID1347426 (Functional Genomics Laboratory (NCATS/FGL), 2020)
